The other results are listed elsewhere or left out.
Compound: Cc1cccc(CC(=O)N2CCc3c2ccc(-c2cn(C)c4ncnc(N)c24)c3F)n1
Test: log2 fold change, soluble protein after heating vs DMSO (PISA); higher = thermal stabilisation; K562 lysate, 10 uM; active = over 0.2 and 3.5 SD of the protein, either way, in both replicates (recomputed)
Method in brief: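 A 30 min treatment with 10 μM compound was applied to crude K562 extract at 1 mg/mL protein in PBS pH 7.4 with 1 mM MgCl2. Heating for 3 min spanned 48°C-58°C, after which aliquots were pooled, adjusted to 0.5% NP-40 at 4°C and spun at 21,000xg for 90 min. TMTpro 16plex LC-MS/MS of the supernatant, with channel sums equalised, gave values recorded as log-two fold change in thermal stability against solvent controls, from duplicates.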

The chains behind the UniProt entries cited, without tags or fusion partners. Where a name states a change or a piece, a line headed by the entry shows the natural chain unless it says otherwise.
UniProt Q9P032: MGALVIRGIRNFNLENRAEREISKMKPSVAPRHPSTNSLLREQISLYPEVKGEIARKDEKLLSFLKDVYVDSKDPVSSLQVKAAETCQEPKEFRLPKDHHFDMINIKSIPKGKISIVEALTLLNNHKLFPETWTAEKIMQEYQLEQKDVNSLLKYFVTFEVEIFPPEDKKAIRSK
UniProt Q9UN36: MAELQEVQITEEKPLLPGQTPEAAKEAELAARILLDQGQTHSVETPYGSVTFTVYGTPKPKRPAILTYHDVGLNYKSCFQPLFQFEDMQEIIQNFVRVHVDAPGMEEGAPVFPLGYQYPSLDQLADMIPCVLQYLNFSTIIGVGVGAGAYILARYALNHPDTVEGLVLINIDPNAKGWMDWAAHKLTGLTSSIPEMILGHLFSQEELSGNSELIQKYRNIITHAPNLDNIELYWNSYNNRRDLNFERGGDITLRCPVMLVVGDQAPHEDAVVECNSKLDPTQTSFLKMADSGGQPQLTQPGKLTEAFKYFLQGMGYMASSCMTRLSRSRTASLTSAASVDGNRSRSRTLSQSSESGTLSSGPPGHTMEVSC
UniProt Q8NHV4, whole entry, looked up: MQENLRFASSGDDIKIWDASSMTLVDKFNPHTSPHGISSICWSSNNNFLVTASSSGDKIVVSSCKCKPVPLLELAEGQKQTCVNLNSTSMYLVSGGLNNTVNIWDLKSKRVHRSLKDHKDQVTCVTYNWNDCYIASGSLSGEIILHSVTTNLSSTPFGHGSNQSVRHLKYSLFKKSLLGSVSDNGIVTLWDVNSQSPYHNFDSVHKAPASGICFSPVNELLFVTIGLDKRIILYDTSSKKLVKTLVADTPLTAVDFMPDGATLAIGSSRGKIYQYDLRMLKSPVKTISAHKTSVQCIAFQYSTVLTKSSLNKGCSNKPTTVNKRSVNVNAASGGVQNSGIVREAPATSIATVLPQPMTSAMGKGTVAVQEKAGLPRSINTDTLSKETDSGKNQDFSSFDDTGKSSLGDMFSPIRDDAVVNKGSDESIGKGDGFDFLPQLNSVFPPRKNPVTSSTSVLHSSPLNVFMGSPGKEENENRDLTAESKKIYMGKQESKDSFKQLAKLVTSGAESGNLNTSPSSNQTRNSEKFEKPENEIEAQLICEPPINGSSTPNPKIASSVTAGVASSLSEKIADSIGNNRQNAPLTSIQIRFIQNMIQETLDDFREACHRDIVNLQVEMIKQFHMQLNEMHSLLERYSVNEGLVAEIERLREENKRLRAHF
UniProt O95299, whole entry, looked up: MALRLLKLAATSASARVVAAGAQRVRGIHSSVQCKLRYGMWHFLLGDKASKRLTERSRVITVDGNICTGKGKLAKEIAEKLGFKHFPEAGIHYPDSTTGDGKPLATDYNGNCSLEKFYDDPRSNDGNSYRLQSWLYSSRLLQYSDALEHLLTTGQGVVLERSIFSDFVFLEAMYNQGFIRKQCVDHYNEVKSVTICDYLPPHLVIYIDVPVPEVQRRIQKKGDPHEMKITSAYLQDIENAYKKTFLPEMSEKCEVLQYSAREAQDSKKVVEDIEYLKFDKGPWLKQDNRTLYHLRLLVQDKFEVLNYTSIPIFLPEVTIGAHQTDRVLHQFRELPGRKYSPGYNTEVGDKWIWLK
UniProt P46934: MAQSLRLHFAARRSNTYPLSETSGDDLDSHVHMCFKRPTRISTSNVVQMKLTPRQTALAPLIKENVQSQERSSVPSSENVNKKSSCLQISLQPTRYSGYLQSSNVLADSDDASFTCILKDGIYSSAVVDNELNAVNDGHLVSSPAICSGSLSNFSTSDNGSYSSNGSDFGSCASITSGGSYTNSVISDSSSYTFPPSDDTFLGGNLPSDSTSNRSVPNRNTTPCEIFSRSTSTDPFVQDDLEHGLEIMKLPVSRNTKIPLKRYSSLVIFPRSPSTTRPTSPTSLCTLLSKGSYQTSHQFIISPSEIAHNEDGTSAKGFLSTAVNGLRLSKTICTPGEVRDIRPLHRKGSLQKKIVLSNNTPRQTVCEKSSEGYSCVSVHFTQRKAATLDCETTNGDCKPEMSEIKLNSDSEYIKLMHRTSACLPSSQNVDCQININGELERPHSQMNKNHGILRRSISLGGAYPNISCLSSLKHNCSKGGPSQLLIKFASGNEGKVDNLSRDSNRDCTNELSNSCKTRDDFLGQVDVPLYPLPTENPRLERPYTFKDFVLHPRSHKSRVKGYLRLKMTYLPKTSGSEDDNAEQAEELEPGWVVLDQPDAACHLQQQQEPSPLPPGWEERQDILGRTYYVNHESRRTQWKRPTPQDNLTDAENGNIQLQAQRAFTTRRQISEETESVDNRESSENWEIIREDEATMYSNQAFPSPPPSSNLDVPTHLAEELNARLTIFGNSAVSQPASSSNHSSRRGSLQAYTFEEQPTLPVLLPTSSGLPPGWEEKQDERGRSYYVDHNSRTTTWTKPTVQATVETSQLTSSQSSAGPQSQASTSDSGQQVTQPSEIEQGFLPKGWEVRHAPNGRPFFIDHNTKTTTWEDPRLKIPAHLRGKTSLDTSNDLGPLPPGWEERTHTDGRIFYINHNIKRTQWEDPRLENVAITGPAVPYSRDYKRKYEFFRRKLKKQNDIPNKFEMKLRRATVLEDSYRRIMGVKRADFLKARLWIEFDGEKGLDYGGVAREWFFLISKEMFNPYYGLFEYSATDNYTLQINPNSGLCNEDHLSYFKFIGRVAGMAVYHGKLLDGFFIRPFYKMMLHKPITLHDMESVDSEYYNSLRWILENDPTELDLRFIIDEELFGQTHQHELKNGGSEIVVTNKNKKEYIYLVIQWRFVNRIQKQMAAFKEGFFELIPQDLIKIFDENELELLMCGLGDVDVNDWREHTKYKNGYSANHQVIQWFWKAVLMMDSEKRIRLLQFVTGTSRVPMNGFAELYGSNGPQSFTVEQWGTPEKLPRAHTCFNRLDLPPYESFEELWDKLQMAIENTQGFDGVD
UniProt O95182, whole entry, looked up: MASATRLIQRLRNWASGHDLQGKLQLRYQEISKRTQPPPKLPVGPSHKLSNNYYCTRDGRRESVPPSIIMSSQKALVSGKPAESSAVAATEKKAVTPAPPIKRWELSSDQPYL
UniProt Q14934: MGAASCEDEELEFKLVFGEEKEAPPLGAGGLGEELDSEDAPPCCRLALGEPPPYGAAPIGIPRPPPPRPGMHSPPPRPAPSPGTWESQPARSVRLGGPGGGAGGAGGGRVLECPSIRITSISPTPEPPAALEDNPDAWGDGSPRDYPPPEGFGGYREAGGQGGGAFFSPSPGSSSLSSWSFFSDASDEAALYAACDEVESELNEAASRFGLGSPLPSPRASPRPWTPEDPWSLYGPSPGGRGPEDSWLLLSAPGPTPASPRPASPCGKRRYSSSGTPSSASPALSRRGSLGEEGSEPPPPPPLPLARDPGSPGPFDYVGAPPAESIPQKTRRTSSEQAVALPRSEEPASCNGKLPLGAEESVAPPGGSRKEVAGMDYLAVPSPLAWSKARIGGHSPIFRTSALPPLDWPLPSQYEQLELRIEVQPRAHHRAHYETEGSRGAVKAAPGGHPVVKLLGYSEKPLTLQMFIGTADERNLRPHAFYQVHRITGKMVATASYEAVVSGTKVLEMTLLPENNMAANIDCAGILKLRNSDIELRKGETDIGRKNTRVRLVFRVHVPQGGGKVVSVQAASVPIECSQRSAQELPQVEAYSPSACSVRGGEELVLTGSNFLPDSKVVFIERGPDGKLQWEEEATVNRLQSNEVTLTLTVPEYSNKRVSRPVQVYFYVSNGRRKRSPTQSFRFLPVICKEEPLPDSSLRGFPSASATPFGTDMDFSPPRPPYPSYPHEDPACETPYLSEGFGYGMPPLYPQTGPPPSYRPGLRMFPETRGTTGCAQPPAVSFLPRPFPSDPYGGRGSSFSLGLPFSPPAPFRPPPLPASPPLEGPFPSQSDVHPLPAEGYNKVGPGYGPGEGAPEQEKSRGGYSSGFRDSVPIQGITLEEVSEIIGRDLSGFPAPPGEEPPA
UniProt P35240: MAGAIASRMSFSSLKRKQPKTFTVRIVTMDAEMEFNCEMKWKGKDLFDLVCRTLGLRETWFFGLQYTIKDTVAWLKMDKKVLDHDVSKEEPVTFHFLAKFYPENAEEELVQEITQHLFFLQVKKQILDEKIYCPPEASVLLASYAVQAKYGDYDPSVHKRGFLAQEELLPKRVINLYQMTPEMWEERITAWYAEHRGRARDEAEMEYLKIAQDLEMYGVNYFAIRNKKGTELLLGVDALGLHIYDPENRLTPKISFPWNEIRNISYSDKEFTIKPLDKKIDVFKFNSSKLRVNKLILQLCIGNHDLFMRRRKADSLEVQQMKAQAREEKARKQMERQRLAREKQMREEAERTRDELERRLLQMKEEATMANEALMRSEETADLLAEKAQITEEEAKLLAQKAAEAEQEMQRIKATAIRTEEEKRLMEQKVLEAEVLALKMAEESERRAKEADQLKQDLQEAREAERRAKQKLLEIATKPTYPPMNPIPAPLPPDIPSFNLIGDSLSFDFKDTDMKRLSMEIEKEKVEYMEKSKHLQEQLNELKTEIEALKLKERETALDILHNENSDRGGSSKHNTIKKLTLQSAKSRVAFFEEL
UniProt Q8WX92, whole entry, looked up: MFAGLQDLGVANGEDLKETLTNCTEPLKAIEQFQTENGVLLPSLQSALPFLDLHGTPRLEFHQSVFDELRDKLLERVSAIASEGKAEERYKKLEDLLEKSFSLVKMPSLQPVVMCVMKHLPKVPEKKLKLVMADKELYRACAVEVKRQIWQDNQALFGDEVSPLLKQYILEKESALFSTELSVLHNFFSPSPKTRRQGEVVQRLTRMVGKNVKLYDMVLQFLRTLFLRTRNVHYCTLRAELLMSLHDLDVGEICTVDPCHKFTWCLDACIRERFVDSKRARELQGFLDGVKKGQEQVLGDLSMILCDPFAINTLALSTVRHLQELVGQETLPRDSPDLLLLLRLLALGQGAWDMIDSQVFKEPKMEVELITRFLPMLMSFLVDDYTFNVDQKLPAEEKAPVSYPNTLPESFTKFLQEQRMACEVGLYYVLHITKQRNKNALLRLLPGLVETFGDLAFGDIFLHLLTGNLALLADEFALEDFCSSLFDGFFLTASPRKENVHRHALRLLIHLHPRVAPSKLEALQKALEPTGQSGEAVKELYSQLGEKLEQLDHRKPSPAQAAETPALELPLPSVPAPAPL
UniProt O75251, whole entry, looked up: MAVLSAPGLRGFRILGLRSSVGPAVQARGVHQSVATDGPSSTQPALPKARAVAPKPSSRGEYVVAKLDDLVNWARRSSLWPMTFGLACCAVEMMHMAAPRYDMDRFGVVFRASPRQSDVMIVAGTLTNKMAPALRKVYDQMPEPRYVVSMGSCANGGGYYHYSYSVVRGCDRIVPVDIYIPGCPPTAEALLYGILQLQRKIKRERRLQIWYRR
UniProt Q12986: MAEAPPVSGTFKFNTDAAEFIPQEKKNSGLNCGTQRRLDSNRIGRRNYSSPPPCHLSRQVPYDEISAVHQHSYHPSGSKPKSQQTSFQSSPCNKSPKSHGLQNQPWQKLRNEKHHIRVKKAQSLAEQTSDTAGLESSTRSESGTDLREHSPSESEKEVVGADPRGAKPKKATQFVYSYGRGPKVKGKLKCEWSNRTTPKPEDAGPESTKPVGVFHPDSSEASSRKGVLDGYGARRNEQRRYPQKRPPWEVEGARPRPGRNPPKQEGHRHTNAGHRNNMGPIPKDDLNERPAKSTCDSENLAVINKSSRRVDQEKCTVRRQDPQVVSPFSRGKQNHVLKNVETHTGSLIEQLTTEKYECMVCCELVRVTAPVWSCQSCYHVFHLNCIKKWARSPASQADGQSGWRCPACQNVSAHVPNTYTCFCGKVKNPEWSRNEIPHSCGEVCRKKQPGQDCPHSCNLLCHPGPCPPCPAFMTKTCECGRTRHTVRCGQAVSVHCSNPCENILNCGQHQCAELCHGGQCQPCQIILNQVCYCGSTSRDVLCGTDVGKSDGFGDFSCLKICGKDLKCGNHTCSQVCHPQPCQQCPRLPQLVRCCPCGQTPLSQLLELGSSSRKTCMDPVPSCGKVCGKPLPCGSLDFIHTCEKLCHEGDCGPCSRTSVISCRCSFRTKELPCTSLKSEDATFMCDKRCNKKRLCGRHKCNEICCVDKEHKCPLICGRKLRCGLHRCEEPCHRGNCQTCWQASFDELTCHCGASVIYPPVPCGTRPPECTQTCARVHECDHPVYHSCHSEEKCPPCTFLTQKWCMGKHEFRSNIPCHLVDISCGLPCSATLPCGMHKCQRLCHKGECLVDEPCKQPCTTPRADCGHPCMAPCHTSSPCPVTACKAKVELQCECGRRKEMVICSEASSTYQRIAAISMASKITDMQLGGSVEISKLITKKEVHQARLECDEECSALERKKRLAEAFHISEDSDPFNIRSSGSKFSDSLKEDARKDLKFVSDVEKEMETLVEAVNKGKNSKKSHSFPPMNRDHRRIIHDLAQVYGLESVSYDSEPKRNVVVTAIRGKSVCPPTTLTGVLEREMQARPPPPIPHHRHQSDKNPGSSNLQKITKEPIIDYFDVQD
UniProt Q9Y6M9, whole entry, looked up: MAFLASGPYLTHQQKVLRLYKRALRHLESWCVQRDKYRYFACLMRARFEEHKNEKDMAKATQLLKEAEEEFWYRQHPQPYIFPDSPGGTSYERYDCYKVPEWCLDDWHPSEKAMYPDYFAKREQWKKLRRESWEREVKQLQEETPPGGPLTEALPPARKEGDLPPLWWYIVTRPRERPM

| Target | log2 fold change |
| --- | --- |
| NIPSNAP3A (UniProt Q9UFN0) | active: -0.276 |
| NEDD8 (UniProt Q15843) | inactive: -0.107 |
| NDUFAF4 (UniProt Q9P032) | inactive: 0.001 |
| NDUFV1 (UniProt P49821) | inactive: 0.023 |
| NEU1 (UniProt Q99519) | inactive: 0.068 |
| NDRG2 (UniProt Q9UN36) | inactive: -0.028 |
| NDUFAB1 (UniProt O14561) | inactive: -0.006 |
| NIFK (UniProt Q9BYG3) | inactive: 0.064 |
| NFU1 (UniProt Q9UMS0) | inactive: -0.076 |
| NDC80 (UniProt O14777) | inactive: 0.012 |
| NEDD1 isoform 3 (UniProt Q8NHV4) | inactive: -0.022 |
| NIP7 (UniProt Q9Y221) | inactive: 0.023 |
| NIT1 (UniProt Q86X76) | inactive: 0.017 |
| NDUFA10 (UniProt O95299) | inactive: 0.116 |
| NFIC (UniProt P08651) | inactive: 0.003 |
| NLRP2 (UniProt Q9NX02) | inactive: -0.018 |
| NEDD4 isoform 4 (UniProt P46934) | inactive: 0.009 |
| NDRG3 (UniProt Q9UGV2) | inactive: -0.044 |
| NFKBIE (UniProt O00221) | inactive: 0.096 |
| NEPRO (UniProt Q6NW34) | inactive: -0.019 |

| Target | log2 fold change |
| --- | --- |
| NDUFA11 (UniProt Q86Y39) | inactive: 0.033 |
| NGLY1 (UniProt Q96IV0) | inactive: 0.04 |
| NFS1 (UniProt Q9Y697) | inactive: 0.009 |
| NDUFA7 (UniProt O95182) | inactive: 0.002 |
| NFATC4 isoform 2 (UniProt Q14934) | inactive: 0.192 |
| NHP2 (UniProt Q9NX24) | inactive: 0.058 |
| NFATC3 (UniProt Q12968) | inactive: 0.003 |
| NFAT5 isoform 5 (UniProt O94916) | inactive: 0.008 |
| NGRN (UniProt Q9NPE2) | inactive: -0.042 |
| NDUFA6 (UniProt P56556) | inactive: 0.055 |
| NF2 (UniProt P35240) | inactive: 0.05 |
| NELFB isoform 2 (UniProt Q8WX92) | inactive: 0.023 |
| NDUFS7 (UniProt O75251) | inactive: 0.036 |
| NFX1 (UniProt Q12986) | inactive: 0.083 |
| NDUFB9 (UniProt Q9Y6M9) | inactive: -0.07 |
| NDUFB8 (UniProt O95169) | inactive: -0.014 |
| NF1 (UniProt P21359) | inactive: 0.049 |
| NIPSNAP2 (UniProt O75323) | inactive: 0.014 |
| NEK7 (UniProt Q8TDX7) | inactive: 0.15 |
| NKIRAS2 (UniProt Q9NYR9) | inactive: 0.085 |

Look-ups from the results shown:
Entry for NELFB isoform 2 (UniProt Q8WX92) under log2 fold change: inactive: 0.023
Entry for NFATC3 (UniProt Q12968) under log2 fold change: inactive: 0.003

Source: the supplement of paper PMC10849652
